According to the supplement of paper PMC4604168 (melanoma cell lines):
Some of the results follow. Single values are uncertain, as repeats are few or missing.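 Cells were imaged in 1,536-well plates, and nuclei stained with an antibody against cleaved PARP were counted against all DNA-stained nuclei to give the apoptosis fraction. Screening doses were chosen to leave most cells alive, and resting and induced cleaved-PARP levels differ strongly between cell lines.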

What was measured:
Test in all cases: cleaved PARP positive nuclei fraction relative to DMSO control; melanoma cells; higher = more apoptosis
Details in all cases: library dose: low library concentration; 72 h
501Mel = tested on: 501Mel
A101D = tested on: A101D
A2058 = tested on: A2058
A375 = tested on: A375
C32 = tested on: C32
CBRC008 = tested on: CBRC008 (line from a melanoma biopsy)
CBRC013 = tested on: CBRC013 (line from a melanoma biopsy)
CBRC014 = tested on: CBRC014 (line from a melanoma biopsy)
CBRC016 = tested on: CBRC016 (line from a melanoma biopsy)
CBRC017 = tested on: CBRC017 (line from a melanoma biopsy)
COLO792 = tested on: COLO792
COLO800 = tested on: COLO800
COLO829 = tested on: COLO829
G361 = tested on: G361
IPC-298 = tested on: IPC-298
IST-MEL1 = tested on: IST-MEL1
LB2518-MEL = tested on: LB2518-MEL
LOXIMVI = tested on: LOXIMVI
MEL-HO = tested on: MEL-HO

SMILES | cleaved PARP positive nuclei fraction (501Mel) | cleaved PARP positive nuclei fraction (A101D) | cleaved PARP positive nuclei fraction (A2058) | cleaved PARP positive nuclei fraction (A375) | cleaved PARP positive nuclei fraction (C32) | cleaved PARP positive nuclei fraction (CBRC008) | cleaved PARP positive nuclei fraction (CBRC013) | cleaved PARP positive nuclei fraction (CBRC014) | cleaved PARP positive nuclei fraction (CBRC016) | cleaved PARP positive nuclei fraction (CBRC017) | cleaved PARP positive nuclei fraction (COLO792) | cleaved PARP positive nuclei fraction (COLO800) | cleaved PARP positive nuclei fraction (COLO829) | cleaved PARP positive nuclei fraction (G361) | cleaved PARP positive nuclei fraction (IPC-298) | cleaved PARP positive nuclei fraction (IST-MEL1) | cleaved PARP positive nuclei fraction (LB2518-MEL) | cleaved PARP positive nuclei fraction (LOXIMVI) | cleaved PARP positive nuclei fraction (MEL-HO)
Cn1nnc2c(C(N)=O)ncn2c1=O [temozolomide] + O=C(O)c1ccc(-c2c[nH]c3ncc(-c4ccccc4)cc23)cc1C1CCCC1 [GSK650394] (first compound 2 µM, partner dose 0.16 µM) | 83% | 87.9% | 135% | 91.1% | 96.1% | 103% | 84% | 475% | 115% | 121% | 118% | 87.9% | 96.4% | 102% | 101% | 51.4% | 46.2% | 42.2% | 38.4%
CO[C@@H]1[C@H](N(C)C(=O)c2ccccc2)C[C@H]2O[C@]1(C)n1c3ccccc3c3c4c(c5c6ccccc6n2c5c31)C(=O)NC4 [Midostaurin] + CC(C)(C)c1cnc(CSc2cnc(NC(=O)C3CCNCC3)s2)o1 [SNS-032] (first compound 0.08 µM, partner dose 0.01 µM) | 80.8% | 90.9% | 56.5% | 56.5% | 250% | 59.1% | 137% | 92.4% | 211% | 77.6% | 72.9% | 114% | 57.9% | 107% | 48.5% | 251% | 104% | 100% | 71.4%
Nc1cccc2c1CN(C1CCC(=O)NC1=O)C2=O (configuration not stated) [lenalidomide] + O=C(CCCCCCC(=O)Nc1ccccc1)NO [vorinostat] (first compound 1 µM, partner dose 0.08 µM) | 74.3% | 71.9% | 62.7% | 130% | 52.3% | 194% | 162% | 74.2% | 122% | 101% | 105% | 80.7% | 80.8% | 76.7% | 79.6% | 59.5% | 83.7% | 65.6% | 86.6%
OCCn1cc(-c2cnc3nnn(Cc4ccc5ncccc5c4)c3n2)cn1 + COc1cc2c(Oc3ccc4[nH]c(C)cc4c3F)ncnc2cc1OCCCN1CCCC1 [cediranib] (first compound 1 µM, partner dose 0.4 µM) | 142% | 36.4% | 76.1% | 117% | 143% | 124% | 94.6% | 85.1% | 41.5% | 128% | 80.9% | 109% | 217% | 138% | 46.7% | 32.6% | 193% | 31.5% | 90.9%
CC1(C)NC(=O)N(c2ccc([N+](=O)[O-])c(C(F)(F)F)c2)C1=O [nilutamide] + NCC(=O)Nc1ccc(-n2nc(C(F)(F)F)cc2-c2ccc3c(ccc4ccccc43)c2)cc1 [OSU03012] (first compound 1 µM, partner dose 1 µM) | 552% | 78.6% | 33.1% | 1730% | 19.9% | 47.9% | 127% | 71.1% | 136% | 59.5% | 136% | 92.7% | 147% | 30.2% | 113% | 134% | 38.8% | 44.7% | 70.7%
C#Cc1cccc(Nc2ncnc3cc(OCCOC)c(OCCOC)cc23)c1 [erlotinib] + Cn1cncc1[C@@](N)(c1ccc(Cl)cc1)c1ccc2c(c1)c(-c1cccc(Cl)c1)cc(=O)n2C [tipifarnib] (first compound 0.8 µM, partner dose 0.01 µM) | 61.6% | 175% | 226% | 95.2% | 158% | 171% | 161% | 98% | 160% | 100% | 115% | 82.4% | 73.1% | 79.7% | 205% | 94% | 107% | 38% | 66.4%
NC(=O)Nc1cc(-c2cccc(F)c2)sc1C(=O)N[C@H]1CCCNC1 + COc1cc2c(Oc3ccc4[nH]c(C)cc4c3F)ncnc2cc1OCCCN1CCCC1 [cediranib] (first compound 0.02 µM, partner dose 0.4 µM) | 206% | 83.8% | 80% | 229% | 192% | 107% | 115% | 87.9% | 63.7% | 110% | 93% | 108% | 106% | 89.3% | 40.6% | 84.8% | 67.1% | 121% | 63.3%
Cn1nnc2c(C(N)=O)ncn2c1=O [temozolomide] + COc1cc(Nc2ncc(F)c(Nc3ccc4c(n3)NC(=O)C(C)(C)O4)n2)cc(OC)c1OC [Tamatinib] (first compound 2 µM, partner dose 0.4 µM) | 70.6% | 112% | 219% | 64.1% | 149% | 79.5% | 155% | 84.2% | 110% | 89.7% | 211% | 112% | 107% | 124% | 77.4% | 217% | 112% | 135% | 70.8%
C=CCn1c(=O)c2cnc(Nc3ccc(N4CCN(C)CC4)cc3)nc2n1-c1cccc(C(C)(C)O)n1 + C[C@@H]1CCN(C(=O)CC#N)C[C@@H]1N(C)c1ncnc2[nH]ccc12 [CP690550] (first compound 0.02 µM, partner dose 1 µM) | 52% | 179% | 56.6% | 219% | 73.5% | 39.7% | 124% | 95% | 38.7% | 83% | 106% | 49% | 105% | 192% | 42.6% | 387% | 88.4% | 114% | 129%
CC(=O)c1c(C)c2cnc(Nc3ccc(N4CCNCC4)cn3)nc2n(C2CCCC2)c1=O [palbociclib] + CC(C)(C)c1cnc(CSc2cnc(NC(=O)C3CCNCC3)s2)o1 [SNS-032] (first compound 0.04 µM, partner dose 0.01 µM) | 126% | 311% | 110% | 180% | 232% | 77.1% | 105% | 103% | 82.8% | 95.4% | 161% | 25.1% | 179% | 53.3% | 89.9% | 111% | 131% | 69.4% | 37.7%
COCC[n+]1c2c(n(Cc3cnccn3)c1C)C(=O)c1ccccc1C2=O + Cc1ccc(NC(=O)c2cccc(N(C)C)c2)cc1NC(=O)c1ccc(O)cc1 [ZM336372] (first compound 0.0004 µM, partner dose 2 µM) | 135% | 83.2% | 204% | 101% | 26.4% | 599% | 68.2% | 108% | 92.8% | 186% | 125% | 110% | 46.8% | 74% | 30.3% | 123% | 111% | 119% | 67.1%
C[C@]1(c2nc3c(C(N)=O)cccc3[nH]2)CCCN1 [Veliparib] + O=C(O)c1ccc(-c2c[nH]c3ncc(-c4ccccc4)cc23)cc1C1CCCC1 [GSK650394] (first compound 1.4 µM, partner dose 0.16 µM) | 91.6% | 98.4% | 234% | 29.8% | 90.3% | 70.7% | 141% | 120% | 114% | 92.2% | 84.1% | 99.3% | 165% | 123% | 66% | 37.8% | 71% | 124% | 223%
CC1(C)NC(=O)N(c2ccc([N+](=O)[O-])c(C(F)(F)F)c2)C1=O [nilutamide] + OCCn1cc(-c2cnc3nnn(Cc4ccc5ncccc5c4)c3n2)cn1 [PF04217903] (first compound 1 µM, partner dose 1 µM) | 76.4% | 52.8% | 99.2% | 128% | 87.5% | 41.5% | 80.7% | 72.7% | 126% | 161% | 126% | 90.7% | 24.1% | 91.6% | 60.4% | 198% | 55% | 59.5% | 206%
C#Cc1cccc(Nc2ncnc3cc(OCCOC)c(OCCOC)cc23)c1 [erlotinib] + O=C(O)c1ccc(-c2c[nH]c3ncc(-c4ccccc4)cc23)cc1C1CCCC1 [GSK650394] (first compound 0.8 µM, partner dose 0.16 µM) | 75.6% | 43.8% | 119% | 30.3% | 52.5% | 910% | 126% | 158% | 98% | 143% | 152% | 86.5% | 150% | 60.2% | 97.6% | 67.9% | 174% | 669% | 52.8%
C=CCn1c(=O)c2cnc(Nc3ccc(N4CCN(C)CC4)cc3)nc2n1-c1cccc(C(C)(C)O)n1 + CO[C@@H]1[C@H](N(C)C(=O)c2ccccc2)C[C@H]2O[C@]1(C)n1c3ccccc3c3c4c(c5c6ccccc6n2c5c31)C(=O)NC4 [Midostaurin] (first compound 0.02 µM, partner dose 0.08 µM) | 98.3% | 324% | 157% | 52.6% | 188% | 163% | 120% | 131% | 181% | 103% | 47.5% | 202% | 116% | 76.5% | 97.7% | 219% | 111% | 34.2% | 73.2%
NC(=O)Nc1cc(-c2cccc(F)c2)sc1C(=O)N[C@H]1CCCNC1 + C[C@@H]1CCN(C(=O)CC#N)C[C@@H]1N(C)c1ncnc2[nH]ccc12 [CP690550] (first compound 0.02 µM, partner dose 1 µM) | 70.4% | 114% | 96.5% | 436% | 74.4% | 88.1% | 100% | 82.5% | 115% | 92.6% | 79.8% | 57.8% | 74.1% | 96% | 121% | 46% | 70.5% | 88.2% | 27.3%
Nc1cccc2c1CN(C1CCC(=O)NC1=O)C2=O (configuration not stated) [lenalidomide] + NCC(=O)Nc1ccc(-n2nc(C(F)(F)F)cc2-c2ccc3c(ccc4ccccc43)c2)cc1 [OSU03012] (first compound 1 µM, partner dose 1 µM) | 228% | 77.6% | 146% | 1830% | 180% | 137% | 96.8% | 75.8% | 173% | 107% | 112% | 55.3% | 200% | 124% | 51.6% | 206% | 93.2% | 131% | 112%
C#Cc1cccc(Nc2ncnc3cc(OCCOC)c(OCCOC)cc23)c1 [erlotinib] + CN(NC(=O)CC(=O)NN(C)C(=S)c1ccccc1)C(=S)c1ccccc1 [STA4783] (first compound 0.8 µM, partner dose 0.006 µM) | 385% | 210% | 108% | 1970% | 76.4% | 736% | 174% | 567% | 128% | 185% | 352% | 184% | 343% | 114% | 91.2% | 38.6% | 168% | 72.3% | 429%

An excerpt from above, showing only cleaved PARP positive nuclei fraction (MEL-HO), cleaved PARP positive nuclei fraction (LOXIMVI) and cleaved PARP positive nuclei fraction (CBRC008):
SMILES	cleaved PARP positive nuclei fraction (MEL-HO)	cleaved PARP positive nuclei fraction (LOXIMVI)	cleaved PARP positive nuclei fraction (CBRC008)
C=CCn1c(=O)c2cnc(Nc3ccc(N4CCN(C)CC4)cc3)nc2n1-c1cccc(C(C)(C)O)n1 + CO[C@@H]1[C@H](N(C)C(=O)c2ccccc2)C[C@H]2O[C@]1(C)n1c3ccccc3c3c4c(c5c6ccccc6n2c5c31)C(=O)NC4 [Midostaurin] (first compound 0.02 µM, partner dose 0.08 µM)	73.2%	34.2%	163%
NC(=O)Nc1cc(-c2cccc(F)c2)sc1C(=O)N[C@H]1CCCNC1 + C[C@@H]1CCN(C(=O)CC#N)C[C@@H]1N(C)c1ncnc2[nH]ccc12 [CP690550] (first compound 0.02 µM, partner dose 1 µM)	27.3%	88.2%	88.1%
